Assay results reported in US20200181284A1, “EPIGENETIC INHIBITORS FOR SENSITIZING HEMATOLOGIC OR OTHER MALIGNANCIES TO GLUCOCORTICOID THERAPY” (UNIVERSITY OF SOUTHERN CALIFORNIA, priority 2017, published 2020).
Results are given in words; binding and its absence hold for the method and conditions named. Binding seen in cells or lysates may run through a third protein. Some entries that bind do so weakly or less than the wild type. Blank lines part the entries; values can stand above or below the substance they belong to.

Chains of the proteins cited; added tags and fusions are not shown. Lines headed by an entry give the natural chain unless they say otherwise; changes in a name come on top. Residues count along the entry.
UniProt Q9H9B1: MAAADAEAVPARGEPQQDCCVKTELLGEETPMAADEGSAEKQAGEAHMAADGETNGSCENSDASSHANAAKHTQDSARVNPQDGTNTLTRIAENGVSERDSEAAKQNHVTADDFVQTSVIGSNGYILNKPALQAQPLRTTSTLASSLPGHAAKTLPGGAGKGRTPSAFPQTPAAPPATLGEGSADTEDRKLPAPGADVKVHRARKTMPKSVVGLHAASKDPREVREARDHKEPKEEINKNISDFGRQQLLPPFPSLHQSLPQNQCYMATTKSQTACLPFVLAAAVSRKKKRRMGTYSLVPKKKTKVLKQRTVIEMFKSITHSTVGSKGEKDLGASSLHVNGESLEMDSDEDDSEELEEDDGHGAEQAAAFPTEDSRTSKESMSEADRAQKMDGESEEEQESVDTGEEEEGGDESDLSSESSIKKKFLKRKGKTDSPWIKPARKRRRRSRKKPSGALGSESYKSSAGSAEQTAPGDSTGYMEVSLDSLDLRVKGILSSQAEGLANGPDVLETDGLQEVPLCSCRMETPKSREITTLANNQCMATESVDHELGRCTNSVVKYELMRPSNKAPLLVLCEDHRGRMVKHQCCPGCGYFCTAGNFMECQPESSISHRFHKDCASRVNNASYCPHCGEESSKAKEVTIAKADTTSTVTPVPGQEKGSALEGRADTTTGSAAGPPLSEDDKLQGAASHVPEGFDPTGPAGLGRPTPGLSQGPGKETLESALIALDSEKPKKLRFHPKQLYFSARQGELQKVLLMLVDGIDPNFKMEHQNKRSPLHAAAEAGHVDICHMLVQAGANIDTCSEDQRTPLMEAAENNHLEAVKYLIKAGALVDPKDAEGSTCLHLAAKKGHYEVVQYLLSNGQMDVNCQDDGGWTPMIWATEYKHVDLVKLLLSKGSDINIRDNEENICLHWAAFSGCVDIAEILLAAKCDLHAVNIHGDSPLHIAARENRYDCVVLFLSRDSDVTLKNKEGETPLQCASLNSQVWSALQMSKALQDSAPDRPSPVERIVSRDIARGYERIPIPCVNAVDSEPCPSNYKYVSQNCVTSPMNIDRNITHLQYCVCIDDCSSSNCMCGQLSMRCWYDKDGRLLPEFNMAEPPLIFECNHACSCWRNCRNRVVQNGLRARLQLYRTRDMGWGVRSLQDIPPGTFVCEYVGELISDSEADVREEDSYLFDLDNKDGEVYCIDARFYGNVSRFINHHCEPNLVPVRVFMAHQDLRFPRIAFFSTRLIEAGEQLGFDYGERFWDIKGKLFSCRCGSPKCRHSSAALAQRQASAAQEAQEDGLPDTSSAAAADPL
endogenous GLP of A549 cells: residues 2-1298 of Q9H9B1
UniProt Q96KQ7: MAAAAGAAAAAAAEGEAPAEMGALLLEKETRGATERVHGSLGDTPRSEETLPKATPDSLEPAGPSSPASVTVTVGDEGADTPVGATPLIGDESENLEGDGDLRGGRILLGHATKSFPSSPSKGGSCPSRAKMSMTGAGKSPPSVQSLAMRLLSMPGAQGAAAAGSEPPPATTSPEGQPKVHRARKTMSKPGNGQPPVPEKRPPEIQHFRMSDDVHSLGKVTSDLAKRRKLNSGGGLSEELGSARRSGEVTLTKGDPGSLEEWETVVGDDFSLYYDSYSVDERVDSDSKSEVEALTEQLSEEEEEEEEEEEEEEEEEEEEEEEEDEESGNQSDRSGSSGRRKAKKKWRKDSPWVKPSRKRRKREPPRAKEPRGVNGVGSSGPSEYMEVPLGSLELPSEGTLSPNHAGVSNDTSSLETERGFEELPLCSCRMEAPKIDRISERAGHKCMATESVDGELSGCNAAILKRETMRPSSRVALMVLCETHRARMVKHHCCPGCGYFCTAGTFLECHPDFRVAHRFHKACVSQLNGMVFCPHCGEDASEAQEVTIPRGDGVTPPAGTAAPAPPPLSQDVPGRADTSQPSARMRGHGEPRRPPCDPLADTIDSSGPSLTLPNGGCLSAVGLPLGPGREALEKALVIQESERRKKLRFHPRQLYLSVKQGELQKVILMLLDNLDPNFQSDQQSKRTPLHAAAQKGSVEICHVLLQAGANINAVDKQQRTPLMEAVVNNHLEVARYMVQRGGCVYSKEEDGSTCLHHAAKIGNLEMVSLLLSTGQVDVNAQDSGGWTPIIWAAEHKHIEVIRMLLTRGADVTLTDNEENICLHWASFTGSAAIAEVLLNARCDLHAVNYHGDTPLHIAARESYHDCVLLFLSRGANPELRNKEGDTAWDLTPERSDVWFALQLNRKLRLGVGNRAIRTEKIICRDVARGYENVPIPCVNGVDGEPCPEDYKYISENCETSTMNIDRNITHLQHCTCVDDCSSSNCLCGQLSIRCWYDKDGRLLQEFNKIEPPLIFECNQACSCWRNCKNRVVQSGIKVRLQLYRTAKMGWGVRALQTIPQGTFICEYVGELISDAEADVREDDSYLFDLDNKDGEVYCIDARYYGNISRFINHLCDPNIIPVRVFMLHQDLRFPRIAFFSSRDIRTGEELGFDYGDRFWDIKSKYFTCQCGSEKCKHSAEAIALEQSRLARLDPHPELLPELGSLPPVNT
UniProt Q13185, residues 2-183: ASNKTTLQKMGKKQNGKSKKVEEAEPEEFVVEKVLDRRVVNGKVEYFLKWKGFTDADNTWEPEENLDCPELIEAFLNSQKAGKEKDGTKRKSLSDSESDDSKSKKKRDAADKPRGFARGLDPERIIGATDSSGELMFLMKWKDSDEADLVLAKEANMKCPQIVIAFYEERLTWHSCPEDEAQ
UniProt Q61026, residues 5-1462: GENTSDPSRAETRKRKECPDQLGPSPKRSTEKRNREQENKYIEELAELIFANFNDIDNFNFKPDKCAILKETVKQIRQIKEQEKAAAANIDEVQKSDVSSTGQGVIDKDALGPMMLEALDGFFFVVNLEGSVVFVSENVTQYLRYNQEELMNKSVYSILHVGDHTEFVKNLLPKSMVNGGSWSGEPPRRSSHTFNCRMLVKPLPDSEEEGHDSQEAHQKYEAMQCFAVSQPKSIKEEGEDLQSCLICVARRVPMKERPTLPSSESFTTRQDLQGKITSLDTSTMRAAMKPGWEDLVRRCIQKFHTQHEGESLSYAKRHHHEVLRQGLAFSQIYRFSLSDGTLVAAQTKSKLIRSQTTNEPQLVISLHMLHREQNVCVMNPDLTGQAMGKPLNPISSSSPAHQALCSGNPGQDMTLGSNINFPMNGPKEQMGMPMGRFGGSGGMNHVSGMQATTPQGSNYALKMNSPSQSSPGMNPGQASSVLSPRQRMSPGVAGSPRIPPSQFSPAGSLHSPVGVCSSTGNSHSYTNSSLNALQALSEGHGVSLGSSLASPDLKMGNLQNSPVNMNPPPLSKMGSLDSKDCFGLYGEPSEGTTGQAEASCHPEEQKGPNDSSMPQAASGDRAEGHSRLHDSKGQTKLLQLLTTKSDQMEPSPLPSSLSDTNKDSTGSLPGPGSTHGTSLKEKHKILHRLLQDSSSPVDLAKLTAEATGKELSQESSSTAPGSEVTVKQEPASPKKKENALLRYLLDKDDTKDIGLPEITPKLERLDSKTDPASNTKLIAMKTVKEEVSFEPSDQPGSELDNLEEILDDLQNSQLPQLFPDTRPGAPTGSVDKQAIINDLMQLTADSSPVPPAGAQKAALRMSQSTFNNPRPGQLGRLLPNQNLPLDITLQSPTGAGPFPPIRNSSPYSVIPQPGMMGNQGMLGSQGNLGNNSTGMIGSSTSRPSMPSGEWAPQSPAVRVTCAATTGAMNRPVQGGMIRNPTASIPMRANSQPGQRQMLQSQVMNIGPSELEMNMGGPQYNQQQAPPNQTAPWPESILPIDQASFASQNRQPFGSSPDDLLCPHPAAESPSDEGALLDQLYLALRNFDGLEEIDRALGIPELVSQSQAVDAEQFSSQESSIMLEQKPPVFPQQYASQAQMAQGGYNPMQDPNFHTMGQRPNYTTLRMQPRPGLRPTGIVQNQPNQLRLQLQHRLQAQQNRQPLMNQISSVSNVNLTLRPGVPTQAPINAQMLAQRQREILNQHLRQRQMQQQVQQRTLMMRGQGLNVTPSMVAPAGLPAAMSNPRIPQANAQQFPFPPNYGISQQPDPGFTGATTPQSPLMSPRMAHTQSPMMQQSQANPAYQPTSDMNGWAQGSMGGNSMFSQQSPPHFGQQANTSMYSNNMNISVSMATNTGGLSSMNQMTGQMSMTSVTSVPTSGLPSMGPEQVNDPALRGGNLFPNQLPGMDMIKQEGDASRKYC
UniProt P04150: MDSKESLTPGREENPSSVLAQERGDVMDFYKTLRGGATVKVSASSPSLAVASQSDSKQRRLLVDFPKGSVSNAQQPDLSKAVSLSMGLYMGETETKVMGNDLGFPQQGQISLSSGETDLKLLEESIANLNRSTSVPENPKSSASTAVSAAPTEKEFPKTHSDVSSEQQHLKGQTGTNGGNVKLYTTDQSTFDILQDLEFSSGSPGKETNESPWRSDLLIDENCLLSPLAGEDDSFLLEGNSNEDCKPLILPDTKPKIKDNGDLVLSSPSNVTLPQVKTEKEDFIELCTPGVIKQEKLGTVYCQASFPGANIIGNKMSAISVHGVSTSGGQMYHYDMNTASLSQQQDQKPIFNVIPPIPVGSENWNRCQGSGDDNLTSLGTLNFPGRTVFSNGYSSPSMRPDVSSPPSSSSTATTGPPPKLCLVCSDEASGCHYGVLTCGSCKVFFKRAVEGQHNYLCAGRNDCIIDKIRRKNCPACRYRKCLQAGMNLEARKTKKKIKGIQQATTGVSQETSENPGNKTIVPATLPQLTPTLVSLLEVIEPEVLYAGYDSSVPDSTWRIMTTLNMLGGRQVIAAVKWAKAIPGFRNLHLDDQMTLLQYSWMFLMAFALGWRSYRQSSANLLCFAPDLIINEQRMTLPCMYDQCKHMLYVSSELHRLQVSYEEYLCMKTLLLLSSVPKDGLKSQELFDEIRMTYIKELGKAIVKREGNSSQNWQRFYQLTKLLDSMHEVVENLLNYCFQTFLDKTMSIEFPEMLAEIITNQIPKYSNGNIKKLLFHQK

Legend:
[1] = biological target: full length HA-hGLP wild type (human) (UniProt Q9H9B1); test: proximity ligation assay (HA and HP1γ antibodies), A549 rtta cells
[2] = biological target: full length HA-hGLP K205R mutant (human) (UniProt Q9H9B1); test: proximity ligation assay (HA and HP1γ antibodies), A549 rtta cells; weaker than wild type
[3] = biological target: full length flag-hG9a K185R mutant (human) (UniProt Q96KQ7); test: co-immunoprecipitation with HA antibody from Cos-7 lysates, flag blot
[4] = biological target: full length flag-hG9a wild type (human) (UniProt Q96KQ7); test: as above
[5] = biological target: endogenous GLP of A549 cells (human) (UniProt Q9H9B1); test: co-immunoprecipitation of endogenous proteins from A549 lysates, anti-GLP IP, anti-GR blot
[6] = biological target: full length HA-hG9a K185R mutant (human) (UniProt Q96KQ7); test: co-immunoprecipitation with GR antibody from Cos-7 lysates, HA blot
[7] = biological target: HA-hG9a K185A mutant (human) (UniProt Q96KQ7); test: as above

binding [1]: binds
binding [2]: binds
Substance: heterochromatin protein 1 gamma (HP1γ), endogenous protein of A549 cells (from UniProt Q13185 2-183)

binding [3]: binds
binding [4]: binds
Substance: HA-Grip1 (from UniProt Q61026 5-1462)

binding [5]: binds
binding [6]: binds
binding [7]: binds
Substance: glucocorticoid receptor (GR) (from UniProt P04150 1-777)
